We go through 66 compounds from PubChem BioAssay AID662 (National Center for Advancing Translational Sciences (NCATS), 2007).

The other results are listed elsewhere or left out. Shown are side measurements of this screen, not its main read-out; they come without a call. Most of these compounds were active or inconclusive in the main read-out, so they are no random draw. Words in brackets tell the shape of the fitted curve; partial curves, single points and poor fits give uncertain potencies.

The test in a line: Cell signaling CRE-BLA (Fsk stim). The note with it: CHO CRE-bla reporter (cAMP response element driving beta-lactamase), forskolin EC10, beta-lactamase ratio; measured here: 460 nm blue channel. Put shortly: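 Forskolin analogue NKH 477 at EC10 stimulated CRE-driven beta-lactamase in CHO cells alongside compound dilution series. Beta-lactamase was measured with CCF4, excitation 405 nm, emission ratio 460/530 nm.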
What is called AC50 is the midpoint of the concentration-response curve, whichever way the signal moves. `CCOc1ccc(N(CC(=O)Nc2ccccc2C)S(=O)(=O)c2c(C)noc2C)cc1`: the AC50 is 3.98 µM [rising, full curve].

Regarding `CC1CC(C)CN(c2oc(-c3ccccc3Cl)nc2C#N)C1` (stereo unspecified), the AC50 is 10 µM [rising, partial curve].

On to `CN(Cc1cccs1)S(=O)(=O)c1cccs1`, for which the AC50 was 0.126 µM [falling, single point].

As to `CCOC(=O)CCCCC(=O)c1[nH]c(=O)[nH]c1CSc1nc(C)cc(C)n1`, the AC50 is 5.01 µM [falling, partial curve, poor fit].

For `Cc1cccc(NC(=O)Nc2ccc(C#N)cc2)n1`, the AC50 was 2.51 µM [falling, full curve].

As to `COC(=O)C1=CO[C@@H](C)[C@H]2CN3CCc4c([nH]c5ccccc45)[C@@H]3C[C@H]12`, the AC50 was 12.6 µM [falling, single point].

For `CS(=O)(=O)N(CC(=O)N1CCCC1)c1ccc(Cl)c(Cl)c1`, the AC50 is 0.631 µM [falling, full curve].

With `COc1cc(C2C3CN(C)CC=C3C(C#N)=C(N)C2(C#N)C#N)ccc1OC(C)C` (stereo unspecified), the AC50 was 10 µM [rising, partial curve].

On to `CC(C)CC1C(C#N)=C(N)SC(N)=C1C#N`, for which the AC50 is 0.0398 µM [falling, full curve, poor fit].

On to `COc1cccc(C(=O)OCCN2C(=O)c3ccccc3C2=O)c1OC`, for which the AC50 was 25.1 µM [rising, single point].

For the compound `COc1ccc(C(=O)n2nc(-c3ccc(Cl)cc3)nc2N)cc1OC`, the AC50 is 2 µM [rising, partial curve].

For `Cc1ccc(N(C(=O)Cn2nnc3ccccc32)C(C(=O)NCc2ccco2)c2cccnc2)cc1` (stereo unspecified), the AC50 is 31.6 µM [falling, single point].

For the compound `COc1ccccc1C(=O)N1CCN(c2nc3cc(C)c(C)cc3cc2C#N)CC1`, the AC50 is 15.8 µM [rising, partial curve].

`NC(=O)CN1C(=O)C2C3C=CC(C3)C2C1=O` (stereo unspecified): the AC50 is 0.1 µM [falling, full curve].

As to `O=S(=O)(NC1CCN(Cc2ccccc2)CC1)c1cccc2cccnc12`, the AC50 was 0.126 µM [falling, full curve, poor fit].

As for `CCOC(=O)c1[nH]c(C)c(C(=O)OCC(=O)N2CCCCC2C)c1C` (stereo unspecified), the AC50 was 12.6 µM [rising, single point].

Take `O=C(O)C1CCCCC1C(=O)N1CC=C(c2ccccc2)CC1` (stereo unspecified): the AC50 is 0.398 µM [falling, partial curve].

As to `N#Cc1ccccc1-c1cncnc1NCc1cccnc1`, the AC50 was 5.01 µM [rising, partial curve].

Take `CCOc1ccc2c(c1)c1nnc(SCC(=O)N3CCCCC3C)nc1n2C` (stereo unspecified): the AC50 is 0.398 µM [rising, full curve].

Regarding `CC(C)C[C@H]1C(=O)N2CCC[C@@H]2[C@]2(O)O[C@](NC(=O)[C@@H]3C=C4c5cccc6[nH]c(Br)c(c56)C[C@H]4N(C)C3)(C(C)C)C(=O)N12`, the AC50 is 2.51 µM [rising, full curve, poor fit].

As for `COc1ccccc1CNC(=O)C(CCSC)NS(=O)(=O)c1ccc2c(c1)oc(=O)n2C` (stereo unspecified), the AC50 is 0.0794 µM [falling, partial curve].

`COc1ccc(C(=O)N2CCN(c3ccc(C)cc3)CC2)cc1OC`: the AC50 is 10 µM [rising, partial curve].

On to `COc1ccc(Oc2ncc3nc(-c4cc(F)cc(F)c4)c(=O)n(C)c3n2)cc1`, for which the AC50 is 25.1 µM [rising, single point].

Consider `CC1CCC(C(=O)NC(C(=O)NCCN2CCC(C)CC2)C(C)C)CC1` (stereo unspecified), for which the AC50 was 0.1 µM [falling, full curve].

As for `COc1cc(OC)c(-c2nn3c(C4CCCCC4)nnc3s2)cc1OC`, the AC50 was 3.98 µM [rising, partial curve].

With `CCOc1ccc(OCC)c(Nc2cc(C)nc3nc(C)nn23)c1`, the AC50 is 7.94 µM [rising, partial curve].

Take `N#CCSc1nc2scc(-c3cccs3)c2c(=O)n1CCc1ccccc1`: the AC50 is 0.501 µM [rising, full curve].

With `NC(N)=NC(=O)c1nc(Cl)c(N)nc1N`, the AC50 was 5.01 µM [rising, single point].

`c1coc(CNc2ncnc3c2oc2ccccc23)c1`: the AC50 is 5.01 µM [rising, partial curve].

Take `COc1ccc(-n2nnnc2S(=O)(=O)Cc2ccc(C(=O)O)cc2)cc1`: the AC50 is 0.00398 µM [falling, full curve, poor fit].

Take `COC(=O)c1ccccc1NC(=O)c1cc(-c2cccc(OC)c2)on1`: the AC50 is 0.251 µM [falling, full curve, poor fit].

For the compound `COc1ccc(S(=O)(=O)Cc2ccc(C(=O)N3CCN(c4cc(Cl)ccc4C)CC3)o2)cc1`, the AC50 is 10 µM [falling, partial curve].

`c1ccc(-c2ccc(N3CCCC4(CCNCC4)C3)cc2)cc1`: the AC50 was 25.1 µM [falling, single point].

As to `O=c1oc2c(O)c(O)cc3c(=O)oc4c(O)c(O)cc1c4c23`, the AC50 is 0.0501 µM [rising, full curve, poor fit].

As to `CCc1nnc(NC(=O)CSc2nnc(-c3ccoc3C)n2-c2ccccc2)s1`, the AC50 was 25.1 µM [rising, single point].

For the compound `COc1cccc(C2=NOC(C(=O)Nc3ccc(C(C)=O)cc3)C2)c1` (stereo unspecified), the AC50 is 15.8 µM [rising, partial curve].

With `CC(=O)c1ccc(N2CCN(C(=O)c3cc(-c4ccc5c(c4)OCO5)nc4ccccc34)CC2)cc1`, the concentration at half-maximal activity (AC50) is 0.00398 µM [falling, full curve, poor fit].

As for `Cc1cc(NC(=O)CSc2nc3c(c(=O)n(C)c(=O)n3C)n2C(C)C)no1`, the AC50 is 3.16 µM [rising, full curve, poor fit].

On to `CC(=O)C1=C(C)N=c2s/c(=C/c3ccc4c(c3)OCO4)c(=O)n2C1c1ccc(N(C)C)cc1` (stereo unspecified), for which the AC50 was 0.0126 µM [falling, full curve, poor fit].

Regarding `Cc1cc(NC(=O)CSc2nnc(-c3ccoc3C)n2N)no1`, the AC50 is 3.16 µM [falling, full curve].

Turning to `c1ccc2c(N3CCNCC3)nc(-c3ccc4c(c3)OCO4)nc2c1`, the AC50 is 10 µM [rising, partial curve].

For the compound `CN(CCC#N)c1ncnc2scc(-c3ccccc3)c12`, the AC50 was 31.6 µM [falling, partial curve, poor fit].

Consider `Cc1cc(C)c(C#N)c(N2CCN(CCOc3ccc(Cl)cc3)CC2)n1`, for which the AC50 is 20 µM [falling, partial curve, poor fit].

In the case of `CN(Cc1ccccc1)c1nc2c(c(=O)[nH]c(=O)n2C)n1CCCc1ccccc1`, the AC50 was 15.8 µM [falling, single point].

As for `CCOC(=O)c1ccc(Nc2cc(C)nc3nc(C)nn23)cc1`, the AC50 is 6.31 µM [rising, partial curve].

For `COc1ccc(OC)c(-c2cc(C(=O)Nc3cccc(Cl)c3)no2)c1`, the AC50 is 5.01 µM [rising, partial curve, poor fit].

Regarding `COc1ccc(CNC(=O)c2c(O)c3ccccc3n(C)c2=O)cc1OC`, the AC50 is 1.26 µM [rising, partial curve].

`COC(=O)c1ccccc1NC(=O)c1sc(=S)n(C)c1N`: the AC50 was 2.51 µM [rising, full curve].

For `COc1ccc(NC(=O)C2CCCN(c3c4c(nc5ncnn35)CCC4)C2)cc1OC` (stereo unspecified), the AC50 is 10 µM [rising, partial curve].

For `CCCCn1c(=O)n(CC(O)c2ccccc2)c(=O)c2c1ncn2C1CCCC1` (stereo unspecified), the AC50 is 1 µM [falling, single point].

Regarding `Cc1ccc(N2CC(C(=O)N3CCN(c4ccccc4)CC3)CC2=O)cc1` (stereo unspecified), the AC50 was 3.98 µM [rising, partial curve].

Consider `N=C1C(c2ccccc2)=C(O)C2CCc3ccccc3N12` (stereo unspecified), for which the AC50 was 12.6 µM [falling, partial curve].

In the case of `CCOc1ccc(Nc2oc(-c3cccs3)nc2C#N)cc1`, the AC50 is 12.6 µM [rising, partial curve].

Regarding `O=C(NCc1n[nH]c(=S)n1-c1ccccc1)c1ccc(S(=O)(=O)N2CCOCC2)cc1`, the AC50 was 0.00398 µM [falling, full curve, poor fit].

For the compound `N#Cc1ccc(NC(=O)N2CCC(c3nc4c(nnn4Cc4cccc(Cl)c4)c(=O)[nH]3)CC2)cc1`, the AC50 is 20 µM [rising, single point].

Turning to `CCOC(=O)c1c(C)[nH]c(C=Nc2ccccc2)c1O`, the AC50 is 3.16 µM [falling, partial curve].

Regarding `O=C(c1cnccn1)N1CCC2(CCCN(C(c3ccccc3)c3ccccc3)C2)CC1`, the AC50 is 12.6 µM [rising, single point].

Turning to `Nc1cccc(-n2nncc2-c2ccccc2)c1`, the AC50 was 0.00794 µM [falling, partial curve, poor fit].

As for `CCNc1ncc2nc(-c3ccc(OC)cc3)c(=O)n(CCc3ccccc3)c2n1`, the AC50 was 5.01 µM [rising, partial curve].

As to `CC(C)(C#N)Nc1ccccc1`, the AC50 was 3.98 µM [falling, partial curve].

`C=CCn1c(NC(C)c2cc(Cl)ccc2O)nc2ccccc21` (stereo unspecified): the AC50 is 25.1 µM [falling, single point].

With `N#CC1=C(N)Oc2c(sc3ccccc23)C1c1ccco1` (stereo unspecified), the AC50 was 3.16 µM [rising, single point].

Take `O=C(/C=C\c1ccc(O)cc1)c1ccc(O)cc1O`: the AC50 is 25.1 µM [falling, single point].

Turning to `COc1ccc(N(CC(=O)Nc2cc(OC)ccc2OC)S(=O)(=O)c2c(C)nn(C)c2C)cc1`, the AC50 is 3.16 µM [rising, full curve].

Consider `Cc1cc(Nc2ccccc2N2CCOCC2)n2ncnc2n1`, for which the AC50 is 12.6 µM [rising, single point].

`CCn1c(SCC(=O)N2CCCC2)nc2c1c(=O)n(C)c(=O)n2C`: the AC50 is 5.01 µM [falling, single point].
